The text below walks through data of patent US20040154051A1 (SYNGENTA PARTICIPATIONS, published 2004).

By UniProt entry, the sequences of proteins in these tests, tags left out. Where a name states a change or a piece, a line headed by the entry shows the natural chain unless it says otherwise.
UniProt P0A7C2: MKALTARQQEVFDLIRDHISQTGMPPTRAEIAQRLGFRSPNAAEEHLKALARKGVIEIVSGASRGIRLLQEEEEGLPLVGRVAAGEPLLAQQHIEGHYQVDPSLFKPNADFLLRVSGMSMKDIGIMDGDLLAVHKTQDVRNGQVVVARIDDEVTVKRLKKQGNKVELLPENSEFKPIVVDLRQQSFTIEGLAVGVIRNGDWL
UniProt P93002: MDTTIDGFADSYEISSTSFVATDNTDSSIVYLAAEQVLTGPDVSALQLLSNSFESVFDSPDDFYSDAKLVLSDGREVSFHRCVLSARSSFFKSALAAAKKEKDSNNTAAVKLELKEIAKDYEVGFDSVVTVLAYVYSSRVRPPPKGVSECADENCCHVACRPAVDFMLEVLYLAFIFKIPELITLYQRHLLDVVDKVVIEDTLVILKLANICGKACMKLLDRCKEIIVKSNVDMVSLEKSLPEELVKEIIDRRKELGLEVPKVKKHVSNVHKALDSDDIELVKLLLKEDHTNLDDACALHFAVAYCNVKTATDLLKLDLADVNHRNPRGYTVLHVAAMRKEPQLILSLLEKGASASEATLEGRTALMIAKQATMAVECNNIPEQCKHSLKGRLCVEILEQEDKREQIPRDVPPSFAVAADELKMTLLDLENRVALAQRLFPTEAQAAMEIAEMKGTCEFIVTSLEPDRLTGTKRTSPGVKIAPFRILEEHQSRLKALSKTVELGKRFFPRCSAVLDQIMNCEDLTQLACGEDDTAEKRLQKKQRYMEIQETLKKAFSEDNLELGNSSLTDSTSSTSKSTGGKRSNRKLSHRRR

The target in test [1] is NIM366-594 bait (C-terminal portion of NIM1, amino acids 366-594, LexA fusion) (Arabidopsis) (UniProt P0A7C2+P93002). Kind of test: yeast two-hybrid screen (LexA bait, B42 prey library; Leu2 and LacZ reporters).
Test [2] concerns the target full-length NIM1 bait (full length Arabidopsis NIM1 fused to the LexA DNA binding domain in pEG202) (Arabidopsis) (UniProt P0A7C2+P93002). Described as above.

No constants are given. Whether binding was seen depends on the method and setting. Some results given as binding are weak or reduced against the parent protein; the word gives no strength. Tags and fused reporters may be left off the sequences shown.

B1: NI16 clone (Arabidopsis NI16 cDNA clone from the pJG4-5 library, fused to the B42 transcriptional activation domain) (other, not shown: large carriers)
chain: MNNSLKKEERVEEDNGKSDGNRGKPSTEVVRTVTEEEVDEFFKILRRVHVATRTVAKVNGGVAEGELPSKKRKRSQNLGLRNSLDCNGVRDGEFDEINRVGLQGLGLDLNCKPEPDSVSLSL
notes: also called NI16 protein
Regarding B1, the binding entry in test [1] and in test [2] was “binds” in each case.
